{"source": "the supplement of paper PMC5393889", "note": "The list shows a part of the results."}
{"tested_on": "Caenorhabditis elegans N2", "assay": "aldicarb interaction hit call (worm growth perturbed in combination with 10 uM aldicarb in both replicates, no effect as single agent) (binary (1 = interacts)); higher = interacts with aldicarb (growth perturbed)", "settings": "first compound 1.5 µM; aldicarb concentration 10 µM; 6 days; 20 °C"}
{"molecule": "CC(NC(=O)c1ccccc1Cl)c1ccc2c(c1)CCCC2", "note": "(stereo unspecified) [wact-532] + CNC(=O)O/N=C/C(C)(C)SC [aldicarb]", "aldicarb interaction hit call": "inactive: 0"}
{"molecule": "O=C(Nc1ccc2ccccc2n1)c1ccccc1", "note": "+ CNC(=O)O/N=C/C(C)(C)SC [aldicarb]", "aldicarb interaction hit call": "inactive: 0"}
{"molecule": "Clc1ccccc1/C=C/c1nc(-c2ccncc2)no1", "note": "[wact-81] + CNC(=O)O/N=C/C(C)(C)SC [aldicarb]", "aldicarb interaction hit call": "inactive: 0"}
{"molecule": "O=[N+]([O-])c1ccc2nc(-c3ccccc3)[nH]c2c1", "note": "[wact-363] + CNC(=O)O/N=C/C(C)(C)SC [aldicarb]", "aldicarb interaction hit call": "inactive: 0"}
{"molecule": "Cc1ccc2nc(-c3ccc(/N=C/c4ccc(O)cc4O)cc3)sc2c1", "note": "[wact-373] + CNC(=O)O/N=C/C(C)(C)SC [aldicarb]", "aldicarb interaction hit call": "inactive: 0"}
{"molecule": "CSc1ccccc1C(=O)NCCSc1ccc(C)cc1", "note": "[wact-548] + CNC(=O)O/N=C/C(C)(C)SC [aldicarb]", "aldicarb interaction hit call": "inactive: 0"}
{"molecule": "Cc1oc(-c2ccc3ccccc3c2)nc1CN(C)CC(C)C", "note": "[wact-305] + CNC(=O)O/N=C/C(C)(C)SC [aldicarb]", "aldicarb interaction hit call": "inactive: 0"}
{"molecule": "Cc1c(Cl)ccc(OCCCCN2CCNCC2)c1C.Cl", "note": "[wact-78] + CNC(=O)O/N=C/C(C)(C)SC [aldicarb]", "aldicarb interaction hit call": "inactive: 0"}
{"molecule": "C#CCN1C(=O)/C(=N/NC(=O)c2ccccc2Cl)c2cc(Br)ccc21", "note": "[wact-356] + CNC(=O)O/N=C/C(C)(C)SC [aldicarb]", "aldicarb interaction hit call": "inactive: 0"}
{"molecule": "CN(CC(O)COc1cccc(CNCCc2ccc(F)cc2)c1)C1CCCCC1", "note": "(stereo unspecified) [wact-236] + CNC(=O)O/N=C/C(C)(C)SC [aldicarb]", "aldicarb interaction hit call": "inactive: 0"}
{"molecule": "C#CC(C)(C)OC(=O)Nc1ccc([N+](=O)[O-])cc1", "note": "[wact-211] + CNC(=O)O/N=C/C(C)(C)SC [aldicarb]", "aldicarb interaction hit call": "inactive: 0"}
{"molecule": "Fc1ccc(-c2noc(-c3cccs3)n2)cc1", "note": "[wact-632] + CNC(=O)O/N=C/C(C)(C)SC [aldicarb]", "aldicarb interaction hit call": "active: 1"}
{"molecule": "CC(C)(C)c1ccc(OCc2nc(-c3ccncc3)no2)cc1", "note": "[wact-441] + CNC(=O)O/N=C/C(C)(C)SC [aldicarb]", "aldicarb interaction hit call": "inactive: 0"}
{"molecule": "c1ccc(OCc2nc(-c3ccccc3)no2)cc1", "note": "[wact-62] + CNC(=O)O/N=C/C(C)(C)SC [aldicarb]", "aldicarb interaction hit call": "inactive: 0"}
{"molecule": "COc1cnn(-c2cccc(C(F)(F)F)c2)c(=O)c1Cl", "note": "[wact-37] + CNC(=O)O/N=C/C(C)(C)SC [aldicarb]", "aldicarb interaction hit call": "inactive: 0"}
{"molecule": "C#CCNS(=O)(=O)c1cccc(C(=O)Nc2ccc3ccccc3n2)c1", "note": "+ CNC(=O)O/N=C/C(C)(C)SC [aldicarb]", "aldicarb interaction hit call": "inactive: 0"}
{"molecule": "C#CCn1/c(=N/C(=O)c2ccc(OC(C)C)cc2)sc2cc(S(N)(=O)=O)ccc21", "note": "[wact-353] + CNC(=O)O/N=C/C(C)(C)SC [aldicarb]", "aldicarb interaction hit call": "inactive: 0"}
{"molecule": "Brc1ccc2[nH]c3c(c2c1)CCCC3NCc1ccccc1", "note": "(stereo unspecified) [wact-392] + CNC(=O)O/N=C/C(C)(C)SC [aldicarb]", "aldicarb interaction hit call": "inactive: 0"}
{"molecule": "Cc1ccc(-c2cc(-c3cccc(F)c3)[nH]n2)c(O)c1", "note": "[wact-446] + CNC(=O)O/N=C/C(C)(C)SC [aldicarb]", "aldicarb interaction hit call": "active: 1"}
{"molecule": "Cc1oc(-c2ccc(-c3ccccc3)cc2)nc1CN(Cc1cnn(C)c1)C(C)C", "note": "[wact-257] + CNC(=O)O/N=C/C(C)(C)SC [aldicarb]", "aldicarb interaction hit call": "inactive: 0"}
{"molecule": "O=C(/C=C/c1ccc2c(c1)OCO2)Nc1ccc(Cl)cc1", "note": "[wact-411] + CNC(=O)O/N=C/C(C)(C)SC [aldicarb]", "aldicarb interaction hit call": "inactive: 0"}
{"molecule": "CNCCCOc1ccc(-c2ccccc2)cc1.Cl", "note": "[wact-94] + CNC(=O)O/N=C/C(C)(C)SC [aldicarb]", "aldicarb interaction hit call": "inactive: 0"}
{"molecule": "O=C(c1ccc(-c2ccccc2)cc1)C1CCCN(Cc2cccnc2)C1", "note": "(stereo unspecified) [wact-244] + CNC(=O)O/N=C/C(C)(C)SC [aldicarb]", "aldicarb interaction hit call": "inactive: 0"}
{"molecule": "Cl.OCCNCc1ccc(OCc2ccc(Cl)cc2Cl)cc1", "note": "[wact-97] + CNC(=O)O/N=C/C(C)(C)SC [aldicarb]", "aldicarb interaction hit call": "inactive: 0"}
{"molecule": "CCc1ccc2oc(-c3cccc(N)c3)nc2c1", "note": "[wact-438] + CNC(=O)O/N=C/C(C)(C)SC [aldicarb]", "aldicarb interaction hit call": "inactive: 0"}
{"molecule": "CCC(NCc1c[nH]nc1-c1ccc(C)c(C)c1)c1ccc(F)cc1", "note": "(stereo unspecified) [wact-297] + CNC(=O)O/N=C/C(C)(C)SC [aldicarb]", "aldicarb interaction hit call": "inactive: 0"}
